Screening data, single-dose tests

The chains behind the UniProt entries cited, without tags or fusion partners.
UniProt I6X8D2, whole entry: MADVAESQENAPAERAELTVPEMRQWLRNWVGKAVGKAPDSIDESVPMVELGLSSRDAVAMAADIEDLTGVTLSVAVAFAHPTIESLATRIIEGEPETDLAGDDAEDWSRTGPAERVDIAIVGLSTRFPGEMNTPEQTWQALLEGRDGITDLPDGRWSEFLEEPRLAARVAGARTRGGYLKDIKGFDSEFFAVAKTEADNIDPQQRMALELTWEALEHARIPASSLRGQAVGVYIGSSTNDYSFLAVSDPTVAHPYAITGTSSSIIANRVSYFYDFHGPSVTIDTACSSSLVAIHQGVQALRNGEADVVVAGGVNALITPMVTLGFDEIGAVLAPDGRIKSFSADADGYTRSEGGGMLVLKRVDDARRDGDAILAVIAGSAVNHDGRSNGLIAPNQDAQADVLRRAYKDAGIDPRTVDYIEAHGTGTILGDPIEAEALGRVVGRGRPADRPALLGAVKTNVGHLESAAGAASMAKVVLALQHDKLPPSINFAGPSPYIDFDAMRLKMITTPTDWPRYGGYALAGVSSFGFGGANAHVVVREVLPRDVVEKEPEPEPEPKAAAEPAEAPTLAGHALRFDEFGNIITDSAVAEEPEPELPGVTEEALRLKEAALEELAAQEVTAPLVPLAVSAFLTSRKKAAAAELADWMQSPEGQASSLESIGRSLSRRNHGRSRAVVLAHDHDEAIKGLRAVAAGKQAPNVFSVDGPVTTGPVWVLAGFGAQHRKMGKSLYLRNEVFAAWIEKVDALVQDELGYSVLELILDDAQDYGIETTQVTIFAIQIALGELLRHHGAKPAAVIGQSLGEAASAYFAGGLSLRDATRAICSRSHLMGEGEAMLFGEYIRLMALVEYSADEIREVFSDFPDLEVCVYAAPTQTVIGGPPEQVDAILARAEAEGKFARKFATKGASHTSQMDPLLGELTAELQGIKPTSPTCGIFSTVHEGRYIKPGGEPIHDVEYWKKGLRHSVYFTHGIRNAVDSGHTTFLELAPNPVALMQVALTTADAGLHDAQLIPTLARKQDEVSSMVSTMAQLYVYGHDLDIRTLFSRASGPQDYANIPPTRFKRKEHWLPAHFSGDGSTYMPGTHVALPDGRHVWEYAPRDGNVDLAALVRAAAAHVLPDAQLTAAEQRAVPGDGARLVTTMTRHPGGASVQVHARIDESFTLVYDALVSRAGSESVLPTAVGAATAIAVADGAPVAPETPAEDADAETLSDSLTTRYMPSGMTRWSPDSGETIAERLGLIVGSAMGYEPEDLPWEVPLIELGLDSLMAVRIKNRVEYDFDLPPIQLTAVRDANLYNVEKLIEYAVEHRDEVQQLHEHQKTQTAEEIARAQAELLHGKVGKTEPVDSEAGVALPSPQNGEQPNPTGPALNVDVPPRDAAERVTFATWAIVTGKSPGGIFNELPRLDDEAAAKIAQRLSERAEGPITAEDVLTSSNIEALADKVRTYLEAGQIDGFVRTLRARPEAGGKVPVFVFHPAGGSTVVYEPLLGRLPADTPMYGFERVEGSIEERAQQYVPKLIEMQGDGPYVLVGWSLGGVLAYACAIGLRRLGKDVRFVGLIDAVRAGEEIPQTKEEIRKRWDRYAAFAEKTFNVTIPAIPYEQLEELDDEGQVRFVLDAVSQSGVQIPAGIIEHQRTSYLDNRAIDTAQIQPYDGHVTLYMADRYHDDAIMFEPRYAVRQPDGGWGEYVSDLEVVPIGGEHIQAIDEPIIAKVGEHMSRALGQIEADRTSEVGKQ

The filed quantity is “Percent Effect” (%).
The controls that fix the scale are not given in the record; negative values are as filed.
This is an unselected part of the compounds tested.

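Polyketide synthase Pks13, Mycobacterium tuberculosis (UniProt I6X8D2). Enzyme assay of the thioesterase domain of polyketide synthase 13; the read-out is not stated. Compounds at 30 µM. The record gives no direction; the compounds picked for IC50 retests had high values, so higher reads as stronger inhibition. About 67,000 compounds were tested under these conditions; 0.46% (about 300) showed 50% or more at least once.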

SMILES,percent effect
O=C(NCCOc1ncc(Cl)cc1Cl)c1ccoc1,36.77%
CCS(=O)(=O)N1C[C@@H]2CN(Cc3cccs3)CCO[C@@H]2C1,2.237%
O=C(CN1CCCC(c2noc(C3CC3)n2)C1)N1CCCC1 (stereo not drawn),1.422%
CC(C)c1noc(CC[C@@H]2CCCN3CCCC[C@H]23)n1,-17.91%
Cc1ccc(OCCSC2=NCCN2)cc1,-27.16%
O=C(C1CC=CC1)N1C[C@@H](OCc2cccnc2)[C@H]2OCCC[C@H]21,-19.94%
COCCN1CCCC(CN(C)c2nc3c(s2)c(C)nn3C)C1 (stereo not drawn),-19.35%
Cc1ncc2c(n1)CN(CC(=O)Nc1nncs1)CC2,0.3423%
CN1C[C@@H](NC(=O)CC(C)(C)C)C[C@H]1c1nc(-c2cnccn2)no1,-33.71%
CC(NCc1ccc(F)cc1)c1ccc(S(C)(=O)=O)cc1 (stereo not drawn),0.3015%
NC(=O)CN1CCC(NC(=O)N2CCCC2c2ccsc2)CC1 (stereo not drawn),-38.4%
CCCC1(CO)CCCN(Cc2nccs2)C1 (stereo not drawn),-36.91%
CCS(=O)(=O)N1CCOC2(CCCN(c3cccc(C#N)c3)C2)C1 (stereo not drawn),-26.59%
Cc1cnc(C(=O)N2CCC3(CC2)CC(c2ccccc2)C(=O)N3)cn1 (stereo not drawn),25.09%
CSCC[C@H](N)C(=O)NCc1cc2n(n1)CCCN(C(=O)N(C)C)C2,-6.319%
NC(=O)c1c(-c2ccc(Cl)cc2)csc1NC(=O)CCC(=O)O,4.768%
O=C(CN1C(=O)CCC1=O)NCc1nn(C2CCCC2)c2c1CCCC2,-33.81%
COCC(=O)NC[C@]12COC[C@H]1CN(c1ncc(F)cn1)C2,9.038%
O=C(CCc1nnc(-c2ccccc2)o1)N1CCCC1c1ccc[nH]1 (stereo not drawn),-18.62%
O=C(c1ccno1)N1CCO[C@@H]2CC(COCc3ccccn3)C[C@H]21 (stereo partly drawn),9.598%
Cc1nnc2n1CCN(C(=O)c1cc(Br)c[nH]1)C2,-10.16%
Cc1csc2ncc(-c3ccnc(NC4CCOCC4)n3)c(=O)n12,12.09%
CC(=O)N1CCC(c2nccnc2-c2ccc(F)c(F)c2)CC1,3.258%
O=C1CSC(C(F)(F)F)c2c(O)nn(C3CCCC3)c2N1 (stereo not drawn),4.534%
O=C(CSc1ccccn1)N1CCC(OCc2cccnc2)CC1,-21.94%
Cc1csc(CN2CCC[C@]3(C[C@H](OCC4CC4)CO3)C2)n1,19.43%
CCn1c(CC2CCN(C(=O)c3cc(C(C)C)nn3C)CC2)n[nH]c1=O,-24.72%
CC(C)N(Cc1ccccn1)C(=O)CCOc1cccc(F)c1,-49.22%
CCc1c(C)nc2cc(C3CCN(Cc4ccccc4F)C3)nn2c1O (stereo not drawn),-50.54%
CC(C)(C)SCCNC(=O)[C@@]12CNC[C@@H]1CN(S(C)(=O)=O)C2,-0.1644%
CCOC(=O)CSc1ccc(-c2nc(C)no2)cn1,7.972%
Cc1ccc(N2C[C@H](C(=O)NCC3CC3)[C@@H]3CCO[C@@H]3C2)nn1,-14.34%
Cc1cccnc1C(=O)N1CCCC(Cc2cncc3ccccc23)C1 (stereo not drawn),7.418%
Cc1ccc(Cl)c(NC(=O)c2cccc(CN3CC[C@H](O)C3)c2)c1,-9.461%
O=C(CN1CCOC(Cn2cccn2)C1)NCCc1cccs1 (stereo not drawn),-8.175%
Cc1noc(-c2ccc(-n3ncc(C(=O)O)c3C)nc2)n1,-6.156%
Cn1nc(COc2cccnc2)c2c1CCN(CC1CC1)C2,-16.68%
C[S+]([O-])CCCNCc1cc(F)ccc1Br (stereo not drawn),-34.42%
Cc1nc(CC(=O)N2CCCC2c2nc(C(C)C)no2)cs1 (stereo not drawn),-78.21%
CN(Cc1ccccc1)c1ncccc1CNC1CCCC1,-16.19%
Cc1noc(C2CCCN(C(=O)c3scnc3Cl)C2)n1 (stereo not drawn),11.42%
CCc1cnc2c(c1Nc1cccc(OC)c1)c(=O)n(C)c(=O)n2C,-15.78%
Cc1c(C(=O)NCCC(=O)N2CCCC2)oc2c(F)cccc12,-29.65%
Cc1ccc(C)c(NC(=O)Cc2c(C)nc3c(c2C)c(=O)[nH]n3C)c1,-3.992%
Cc1cnn(CC2CCCN2Cc2coc(-c3ccccc3)n2)c1 (stereo not drawn),-10.26%
COC(=O)c1cc2c(OC)c(C)c(OC)cc2[nH]1,9.314%
Cc1ccc(CN(C)C(=O)NCC(C)(C)S(C)(=O)=O)s1,-17.56%
Cc1nccc(CN2CC[C@H](Oc3cccc(F)c3)[C@@](C)(O)C2)n1,-8.924%
COc1ncccc1CNC(=O)c1cccnc1O,-9.282%
Cc1cc(C(=O)N2CCC(c3nccn3Cc3ccccn3)CC2)no1,-13.3%
CCC(C(=O)N1CCN(C(=O)N2CCOCC2)CC1)n1cccn1 (stereo not drawn),-24.72%
Cc1cnn(CC(=O)N2CCCN(c3nc(C)cs3)CC2)c1,-1.639%
CCOCC(O)CN1CCN(C(=O)c2cccc(CC#N)c2)CC1 (stereo not drawn),-5.084%
CS(=O)(=O)N1C[C@@H](C(=O)Nc2cnccn2)C[C@H]2OCC[C@H]21,-3.082%
Cn1cc(C2CC(=O)NC23CCN(C(=O)c2ccc[nH]2)CC3)cn1 (stereo not drawn),-37.8%
N[C@@H](Cc1ccccc1)c1nnc(S(=O)(=O)Cc2cccc(Cl)c2)o1,-16.71%
CCn1cc(CN2CCCN(C(=O)c3cccc(C#N)c3)CC2)cn1,-9.578%
O=C(CCc1cc2n(n1)CCCNC2)N1CCC(N2CCOC2=O)CC1,-13.29%
COC(=O)N1CC2=CC(C)(C)COc3ccc(OC)c(c32)C1,-9.489%
CN(Cc1ccccc1)c1ncccc1CNC(=O)c1ccnn1C,-1.819%
COCC(=O)N1CCCC2(CCN(CCN3CCCC3)CC2)C1,-17.69%
CN(Cc1ccoc1)C(=O)Cn1ncc(N(C)C)cc1=O,-0.7892%
O=C(c1cccc(-n2cccn2)c1)N1CCOC(CCO)C1 (stereo not drawn),-0.5154%
COCCNC1(c2ccc(Cl)cc2)CCOCC1,-24.29%
Cc1ccc(C#N)c(N2CCCC(c3nccn3Cc3cscn3)C2)n1 (stereo not drawn),-17.97%
c1cnn(-c2ccc(CN3CCOC(Cn4cncn4)C3)cc2)c1 (stereo not drawn),-37.31%
CNC(=O)C1CCCN(C(=O)c2ccccc2-n2cc(CN)cn2)C1 (stereo not drawn),-0.8163%
CC(C)(CNC(=O)C1CCCN1S(C)(=O)=O)N1CCOCC1 (stereo not drawn),-10.01%
CCC(=O)Nc1cccc(C(=O)NCCC2=CSC3=NCCCN23)c1,-12.62%
CC(C)C(=O)N1CCc2onc(C(=O)NCCN(C)C)c2C1,-23.27%
CN(Cc1cc(Br)cn1C)C(=O)c1cc(Cl)ccn1,-4.953%
CCn1c(C2CCN(C(=O)c3ccc4sc(C)nc4c3)CC2)n[nH]c1=O,1.832%
O=C(CN1CCN(c2ccnc3c(F)ccc(F)c23)CC1)NC1CC1,-3.873%
COc1cccc(OC2CN(C(=O)c3cc(CC(C)C)nn3C)C2)c1,-38.89%
CCOC(=O)C1CCN(C(=O)c2cnn(-c3ccccc3F)c2N)CC1,1.438%
CNC(=O)c1cn2cc(-c3ccccc3Cl)n(CC=C(C)C)c(=O)c2n1,-213.6%
COCc1cc(NCc2cccnc2Oc2ccc(C)nc2)ncn1,-33.51%
COc1cccc(-c2nc(CNCc3cccnc3)cs2)c1,2.818%
Cc1nc(C(=O)N2CCC(c3nccn3Cc3ccncc3)CC2)cs1,-9.734%

For reference, 5 entries once more:

* O=C(c1ccno1)N1CCO[C@@H]2CC(COCc3ccccn3)C[C@H]21 (stereo partly drawn) | 9.598%
* CCS(=O)(=O)N1C[C@@H]2CN(Cc3cccs3)CCO[C@@H]2C1 | 2.237%
* CNC(=O)C1CCCN(C(=O)c2ccccc2-n2cc(CN)cn2)C1 (stereo not drawn) | -0.8163%
* Cn1cc(C2CC(=O)NC23CCN(C(=O)c2ccc[nH]2)CC3)cn1 (stereo not drawn) | -37.8%
* CSCC[C@H](N)C(=O)NCc1cc2n(n1)CCCN(C(=O)N(C)C)C2 | -6.319%

Source: ChEMBL document CHEMBL3988442, “University of Dundee, Small-Polar-MMV Screening Library” (2021).